Data on one molecule can be found in paper doi:10.1101/783837.

Chains of the proteins cited; added tags and fusions are not shown.
UniProt Q10658: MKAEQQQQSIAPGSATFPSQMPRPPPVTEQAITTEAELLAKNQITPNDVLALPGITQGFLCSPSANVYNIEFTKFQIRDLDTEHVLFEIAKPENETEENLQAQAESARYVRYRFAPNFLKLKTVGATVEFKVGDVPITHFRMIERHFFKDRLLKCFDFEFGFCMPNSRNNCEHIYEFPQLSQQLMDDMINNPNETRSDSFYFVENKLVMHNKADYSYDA

This test has as its target bio-mCherry-UNC-119 (C. elegans) (UniProt Q10658). Description: pull-down.

These are yes or no findings as the source states them, for the method shown. Binding seen in cells or lysates may run through a third protein. Some entries that bind do so weakly or less than the wild type. Tags and fused reporters may be left off the sequences shown.

B1: UNC-33L::GFP (protein, UniProt Q01630 1-854)
chain: MFPFLAPIRSANHVEQQGTKYYVEITFLADSPYSRAPSSTGTEKSVIPTLRNLDDLETVSNKSRSSEGVNKLGSRPNSRSSAIVKKTSVSSLPTSARSEGKSSPIPVKDAIPAPARHKNKGLEMSSAMMELFGGGGSTSPAPSKRENPADAPSDRVVSNAKLSQPGPEWFEGFEQMDMTDIELPPDPNCPAEKVLRGEKSTPDFDSDWQEAKEDVLDPQSYPKSFNPAESLPGPDIGAGVDDEEEPEAEAQEMEEPQYESKVDEKDDDDNGSSSSKKGHPSEDGDSTRNGETPTDRRNSGAIEETADGESSAQSAAEKKNSGDDGNGGGGEMSILLVKNAQIVNDDAIFVADILIEDGIIQNVAPNLEAPEGAEVLDAAGKLALPAGIDVYTQVTDSSVDDLSTGCKSAIAGGTGTIVEVVRPRGAESVVSAVKRVKNQLEKSGISCHVALSVAITDFCEQEMSELVKNEGINSFVLDGVSLTDDKLLELFEHVKRLGALIRVVPENKSIVAMLEKKMLKLGVTGPEGFPQSRPESLEADRVSGVCVLGNLASCPISIVQVSSADSLAAIEKARASGALAHAEIASAAVTADGSALFSQDLRFASAHLTDVPLRRGAPDRMIGALSTQPLVVCTSGHRPVNSATRVAAKDFAIAQKGSTGAEERMAVVWERAVRSGRIDAMRFVAVTSTNAAKMFNMYPKKGRIAVGADADLVIWDASGKRVLESSRAQSSQENSMYDGLTVHSVVTATIVGGKIAYQNGEVREAPVAGGFLRLSPNSPYLFSMVGQRDKFANVERVEREASSQQQKPQQNGHHKNSGDFDRNRTKVMESSIDFGGSAANRPRNPPGGRTTGFW
For the molecule B1, the binding result was “binds”.
